Results on three molecules are retold here after article PMC9751095.

Sequences of proteins named here, by UniProt entry; tags and fusion partners are left off. Residues count along the entry.
UniProt P13621, residues 24-213: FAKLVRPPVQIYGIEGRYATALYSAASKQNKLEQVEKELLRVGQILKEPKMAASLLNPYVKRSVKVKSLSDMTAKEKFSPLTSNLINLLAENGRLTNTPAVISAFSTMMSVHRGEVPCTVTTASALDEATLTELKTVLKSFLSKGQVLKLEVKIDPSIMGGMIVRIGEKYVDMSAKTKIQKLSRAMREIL
UniProt P13619, residues 43-256: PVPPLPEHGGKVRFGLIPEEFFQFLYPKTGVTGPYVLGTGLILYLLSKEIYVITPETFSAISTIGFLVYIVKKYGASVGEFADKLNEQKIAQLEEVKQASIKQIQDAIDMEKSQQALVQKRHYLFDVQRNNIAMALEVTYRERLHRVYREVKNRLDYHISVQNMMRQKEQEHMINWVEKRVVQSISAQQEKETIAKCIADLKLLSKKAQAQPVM
UniProt P00829, residues 47-528: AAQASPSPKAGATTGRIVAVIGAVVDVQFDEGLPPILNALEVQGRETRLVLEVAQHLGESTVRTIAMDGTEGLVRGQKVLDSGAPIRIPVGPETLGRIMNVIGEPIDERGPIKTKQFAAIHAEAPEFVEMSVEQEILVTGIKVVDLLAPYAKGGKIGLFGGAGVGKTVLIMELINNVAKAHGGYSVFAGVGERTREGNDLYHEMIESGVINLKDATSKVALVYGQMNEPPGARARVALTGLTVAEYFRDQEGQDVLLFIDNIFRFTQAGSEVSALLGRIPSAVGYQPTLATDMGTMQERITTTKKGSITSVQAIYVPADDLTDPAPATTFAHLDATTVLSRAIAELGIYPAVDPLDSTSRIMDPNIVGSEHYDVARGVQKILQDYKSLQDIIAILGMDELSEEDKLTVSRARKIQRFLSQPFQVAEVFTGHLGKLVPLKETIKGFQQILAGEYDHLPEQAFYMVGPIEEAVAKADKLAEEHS
UniProt Q28852: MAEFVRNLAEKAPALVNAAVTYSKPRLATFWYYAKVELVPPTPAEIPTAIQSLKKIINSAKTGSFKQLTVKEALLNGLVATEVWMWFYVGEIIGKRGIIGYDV
UniProt P19483, residues 44-553: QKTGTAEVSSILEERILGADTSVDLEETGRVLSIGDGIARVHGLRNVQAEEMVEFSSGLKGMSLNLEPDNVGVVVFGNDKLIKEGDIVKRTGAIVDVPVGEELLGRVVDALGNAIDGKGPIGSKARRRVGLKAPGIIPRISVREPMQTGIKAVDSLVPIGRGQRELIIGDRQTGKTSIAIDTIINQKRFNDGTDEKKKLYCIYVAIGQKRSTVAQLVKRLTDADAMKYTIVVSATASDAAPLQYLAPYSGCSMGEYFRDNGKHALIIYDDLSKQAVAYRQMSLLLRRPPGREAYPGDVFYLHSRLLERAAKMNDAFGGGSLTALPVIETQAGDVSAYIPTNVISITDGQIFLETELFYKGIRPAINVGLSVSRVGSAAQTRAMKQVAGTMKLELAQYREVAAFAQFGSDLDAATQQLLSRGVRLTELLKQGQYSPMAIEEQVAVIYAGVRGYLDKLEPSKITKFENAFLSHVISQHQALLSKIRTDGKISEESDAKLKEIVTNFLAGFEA
UniProt P31040, residues 43-664: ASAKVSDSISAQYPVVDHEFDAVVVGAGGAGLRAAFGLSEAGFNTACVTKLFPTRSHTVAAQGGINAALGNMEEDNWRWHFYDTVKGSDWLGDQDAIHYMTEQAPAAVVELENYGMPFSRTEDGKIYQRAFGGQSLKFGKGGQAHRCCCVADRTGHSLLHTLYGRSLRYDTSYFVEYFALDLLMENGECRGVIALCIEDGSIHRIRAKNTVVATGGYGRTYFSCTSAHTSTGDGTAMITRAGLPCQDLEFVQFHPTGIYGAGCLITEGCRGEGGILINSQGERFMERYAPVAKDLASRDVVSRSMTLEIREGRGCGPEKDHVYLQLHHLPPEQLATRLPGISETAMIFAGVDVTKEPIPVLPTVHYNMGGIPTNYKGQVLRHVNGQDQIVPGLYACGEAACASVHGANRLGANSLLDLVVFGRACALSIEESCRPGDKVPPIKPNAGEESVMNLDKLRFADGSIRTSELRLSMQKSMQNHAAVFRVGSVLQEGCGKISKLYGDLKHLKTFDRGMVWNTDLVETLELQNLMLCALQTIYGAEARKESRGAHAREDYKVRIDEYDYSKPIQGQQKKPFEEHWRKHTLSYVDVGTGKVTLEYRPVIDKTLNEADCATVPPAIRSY

No constants are given. Whether binding was seen depends on the method and setting. For part of these data: In cells and extracts the contact can be indirect. Some binding calls cover weakened binding; strength is not graded here. For part of these data: Tags and fused reporters may be left off the sequences shown.

Substrate in test [1]: OSCP subunit of purified bovine heart F-ATP synthase (bovine) (UniProt P13621)
Nature of the test: far-Western, overlay or dot blot; purified bovine F-ATP synthase subunits or purified CyPD separated by SDS-PAGE and transferred onto nitrocellulose; incubated with or without 50 µg purified TRAP1 for 30 min in overlay buffer (50 mM Tris-HCl pH 7.5, 200 mM NaCl, 3% BSA, 0.1% polyethylene glycol); detected with anti-TRAP1 antibody; casein as negative control; both purified.

Test [2] has as its target b subunit of purified bovine heart F-ATP synthase (bovine) (UniProt P13619). Described as above.
The target in test [3] is β subunit of purified bovine heart F-ATP synthase (bovine) (UniProt P00829). Described as above.
For test [4], the target named is g subunit of purified bovine heart F-ATP synthase (bovine) (UniProt Q28852). Described as above.
The target in test [5] is α subunit of purified bovine heart F-ATP synthase (bovine) (UniProt P19483). The description is as above.
The target in test [6] is T1, γ subunit of purified bovine heart F-ATP synthase (bovine) (UniProt P05631).
T1 sequence: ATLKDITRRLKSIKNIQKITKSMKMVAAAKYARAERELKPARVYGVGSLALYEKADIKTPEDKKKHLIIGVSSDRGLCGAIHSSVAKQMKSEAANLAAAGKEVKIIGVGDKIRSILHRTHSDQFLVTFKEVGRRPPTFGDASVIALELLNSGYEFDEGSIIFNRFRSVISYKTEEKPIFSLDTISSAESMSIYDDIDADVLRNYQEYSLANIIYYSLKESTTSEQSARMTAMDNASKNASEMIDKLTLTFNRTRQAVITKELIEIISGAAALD
The description is as above.

Test [7] concerns the target purified recombinant human cyclophilin D (human), P30405. The test is described as above. To be noted: remark: other sources report otherwise.
The next test has as its target SDHA-GFP10 (UniProt P31040). As to the kind of experiment: split reporter; tripartite split GFP in sMPNST cells co-transfected with mito-GFP1-9, a GFP10 fusion and a GFP11 fusion; MitoTracker red, fixed 48 h after transfection, microscopy; also in TRAP1 or CyPD knock-out cells and with 100 µM i5 or 2 µM CsA.
In the next test the target is T2, OSCP-GFP10 (UniProt P48047).
T2 sequence: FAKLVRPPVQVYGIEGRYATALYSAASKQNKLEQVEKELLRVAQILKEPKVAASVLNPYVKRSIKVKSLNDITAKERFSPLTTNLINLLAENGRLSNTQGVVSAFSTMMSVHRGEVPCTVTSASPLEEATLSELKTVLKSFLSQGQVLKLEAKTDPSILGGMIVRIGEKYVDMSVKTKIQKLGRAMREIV
The description is as above.

B1: purified human TRAP1 (protein, UniProt Q12931 60-704)
chain: STQTAEDKEEPLHSIISSTESVQGSTSKHEFQAETKKLLDIVARSLYSEKEVFIRELISNASDALEKLRHKLVSDGQALPEMEIHLQTNAEKGTITIQDTGIGMTQEELVSNLGTIARSGSKAFLDALQNQAEASSKIIGQFGVGFYSAFMVADRVEVYSRSAAPGSLGYQWLSDGSGVFEIAEASGVRTGTKIIIHLKSDCKEFSSEARVRDVVTKYSNFVSFPLYLNGRRMNTLQAIWMMDPKDVREWQHEEFYRYVAQAHDKPRYTLHYKTDAPLNIRSIFYVPDMKPSMFDVSRELGSSVALYSRKVLIQTKATDILPKWLRFIRGVVDSEDIPLNLSRELLQESALIRKLRDVLQQRLIKFFIDQSKKDAEKYAKFFEDYGLFMREGIVTATEQEVKEDIAKLLRYESSALPSGQLTSLSEYASRMRAGTRNIYYLCAPNRHLAEHSPYYEAMKKKDTEVLFCFEQFDELTLLHLREFDKKKLISVETDIVVDHYKEEKFEDRSPAAECLSEKETEELMAWMRNVLGSRVTNVKVTLRLDTHPAMVTVLEMGAARHFLRMQQLAKTQEERAQLLQPTLEINPRHALIKKLNQLRASEPGLAQLLVDQIYENAMIAAGLVDDPRAMVGRLNELLVKALERH
Consider B1, for which the binding result in [1], in [2], in test [3], in test [4], in test [5] and in test [6] was “binds” throughout.

B2: purified human TRAP1, Q12931 60-704 (protein)
chain: B1 chain
As to B2, in test [7], the binding result is on record as “binds”.

B3: SDHB-GFP11 (protein, UniProt P21912 29-280)
chain: AQTAAATAPRIKKFAIYRWDPDKAGDKPHMQTYEVDLNKCGPMVLDALIKIKNEVDSTLTFRRSCREGICGSCAMNINGGNTLACTRRIDTNLNKVSKIYPLPHMYVIKDLVPDLSNFYAQYKSIEPYLKKKDESQEGKQQYLQSIEEREKLDGLYECILCACCSTSCPSYWWNGDKYLGPAVLMQAYRWMIDSRDDFTEERLAKLQDPFSLYRCHTIMNCTRTCPKGLNPGKAIAEIKKMMATYKEKKASV
Consider B3, for which the binding entry in the test with SDHA-GFP10 is recorded as “binds”; in the test with OSCP-GFP10 it was “no binding”.
